Experimental data taken from patent US20250282834A1, “PEPTIDE INHIBITORS FOR CHROMODOMAIN HELICASE DNA BINDING PROTEIN 4 (CHD4)” (THE REGENTS OF THE UNIVERSITY OF CALIFORNIA, priority 2022, published 2025).
Results are given in words; binding and its absence hold for the method and conditions named. Binding seen in cells or lysates may run through a third protein. Some binding calls cover weakened binding; strength is not graded here.

Amino acid sequences for entries named in this document (tags omitted).
UniProt Q14839: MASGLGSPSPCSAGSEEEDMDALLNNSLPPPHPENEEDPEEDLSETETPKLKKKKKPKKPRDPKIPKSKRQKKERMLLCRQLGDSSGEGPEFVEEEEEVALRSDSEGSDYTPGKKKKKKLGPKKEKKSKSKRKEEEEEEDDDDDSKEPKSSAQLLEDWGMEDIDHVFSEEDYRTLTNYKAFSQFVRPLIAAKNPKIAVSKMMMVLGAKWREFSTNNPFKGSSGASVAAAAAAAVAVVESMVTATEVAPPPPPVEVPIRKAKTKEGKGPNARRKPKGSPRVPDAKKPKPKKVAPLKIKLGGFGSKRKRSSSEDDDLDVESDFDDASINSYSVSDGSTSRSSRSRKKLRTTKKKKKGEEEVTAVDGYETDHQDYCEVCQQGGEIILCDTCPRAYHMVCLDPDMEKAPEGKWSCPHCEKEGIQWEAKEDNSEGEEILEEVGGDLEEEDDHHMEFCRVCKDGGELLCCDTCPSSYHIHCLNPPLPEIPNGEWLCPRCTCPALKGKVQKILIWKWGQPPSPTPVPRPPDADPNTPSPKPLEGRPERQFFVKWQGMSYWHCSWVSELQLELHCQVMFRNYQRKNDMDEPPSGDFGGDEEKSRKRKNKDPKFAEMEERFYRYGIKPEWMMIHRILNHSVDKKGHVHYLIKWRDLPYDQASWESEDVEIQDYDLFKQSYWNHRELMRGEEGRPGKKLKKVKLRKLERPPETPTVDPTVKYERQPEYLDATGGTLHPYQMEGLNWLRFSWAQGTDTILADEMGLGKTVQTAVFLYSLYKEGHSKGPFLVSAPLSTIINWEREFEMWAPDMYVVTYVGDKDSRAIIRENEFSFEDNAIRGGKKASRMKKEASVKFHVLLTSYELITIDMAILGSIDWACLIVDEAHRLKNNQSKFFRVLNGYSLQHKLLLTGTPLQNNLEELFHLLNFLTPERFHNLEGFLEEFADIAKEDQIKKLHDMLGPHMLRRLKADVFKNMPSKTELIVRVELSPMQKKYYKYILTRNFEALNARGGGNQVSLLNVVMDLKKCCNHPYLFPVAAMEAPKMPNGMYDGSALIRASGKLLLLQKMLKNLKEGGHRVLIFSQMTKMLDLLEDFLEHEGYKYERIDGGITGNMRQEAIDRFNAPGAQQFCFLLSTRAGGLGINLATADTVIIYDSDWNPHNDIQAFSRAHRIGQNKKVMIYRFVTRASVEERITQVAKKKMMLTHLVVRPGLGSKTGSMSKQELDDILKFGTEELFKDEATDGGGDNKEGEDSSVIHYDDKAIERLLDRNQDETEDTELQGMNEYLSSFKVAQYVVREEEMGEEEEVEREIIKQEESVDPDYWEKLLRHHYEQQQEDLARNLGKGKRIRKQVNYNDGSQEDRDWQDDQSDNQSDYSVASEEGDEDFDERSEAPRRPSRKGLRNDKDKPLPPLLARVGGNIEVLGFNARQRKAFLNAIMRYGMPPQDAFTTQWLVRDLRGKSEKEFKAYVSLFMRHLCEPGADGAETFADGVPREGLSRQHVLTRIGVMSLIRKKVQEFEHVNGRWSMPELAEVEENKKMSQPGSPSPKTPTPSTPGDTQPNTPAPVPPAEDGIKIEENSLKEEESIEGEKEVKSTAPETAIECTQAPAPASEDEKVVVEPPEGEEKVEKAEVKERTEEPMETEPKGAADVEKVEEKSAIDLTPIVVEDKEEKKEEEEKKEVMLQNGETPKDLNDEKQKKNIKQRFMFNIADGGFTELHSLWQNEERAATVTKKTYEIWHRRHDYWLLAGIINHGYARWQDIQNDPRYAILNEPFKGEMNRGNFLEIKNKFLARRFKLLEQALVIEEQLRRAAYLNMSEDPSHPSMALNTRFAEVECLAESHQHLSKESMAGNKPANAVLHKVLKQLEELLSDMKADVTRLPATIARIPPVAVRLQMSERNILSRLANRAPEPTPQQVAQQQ

Target: full-length Flag-CHD4 (chromodomain helicase DNA-binding protein 4) (UniProt Q14839)
Assay: peptide pull-down: 100 nM purified Flag-CHD4 with 1 µg N-biotinylated peptide, anti-Flag immunoblot

## KFAVIFWGNDPYGLKKLSQAFQFGGVK (N-terminal biotin) [#10]
  binding: binds
